Among the data in the supplement of paper PMC12819154, “High-throughput peptide-centric local stability assay extends protein–ligand identification to membrane proteins, tissues and bacteria” (Nature Structural & Molecular Biology, 2025) are log2 fold change values, retold here.

The chains behind the UniProt entries cited, without tags or fusion partners. Where a name states a change or a piece, a line headed by the entry shows the natural chain unless it says otherwise.
UniProt P23458: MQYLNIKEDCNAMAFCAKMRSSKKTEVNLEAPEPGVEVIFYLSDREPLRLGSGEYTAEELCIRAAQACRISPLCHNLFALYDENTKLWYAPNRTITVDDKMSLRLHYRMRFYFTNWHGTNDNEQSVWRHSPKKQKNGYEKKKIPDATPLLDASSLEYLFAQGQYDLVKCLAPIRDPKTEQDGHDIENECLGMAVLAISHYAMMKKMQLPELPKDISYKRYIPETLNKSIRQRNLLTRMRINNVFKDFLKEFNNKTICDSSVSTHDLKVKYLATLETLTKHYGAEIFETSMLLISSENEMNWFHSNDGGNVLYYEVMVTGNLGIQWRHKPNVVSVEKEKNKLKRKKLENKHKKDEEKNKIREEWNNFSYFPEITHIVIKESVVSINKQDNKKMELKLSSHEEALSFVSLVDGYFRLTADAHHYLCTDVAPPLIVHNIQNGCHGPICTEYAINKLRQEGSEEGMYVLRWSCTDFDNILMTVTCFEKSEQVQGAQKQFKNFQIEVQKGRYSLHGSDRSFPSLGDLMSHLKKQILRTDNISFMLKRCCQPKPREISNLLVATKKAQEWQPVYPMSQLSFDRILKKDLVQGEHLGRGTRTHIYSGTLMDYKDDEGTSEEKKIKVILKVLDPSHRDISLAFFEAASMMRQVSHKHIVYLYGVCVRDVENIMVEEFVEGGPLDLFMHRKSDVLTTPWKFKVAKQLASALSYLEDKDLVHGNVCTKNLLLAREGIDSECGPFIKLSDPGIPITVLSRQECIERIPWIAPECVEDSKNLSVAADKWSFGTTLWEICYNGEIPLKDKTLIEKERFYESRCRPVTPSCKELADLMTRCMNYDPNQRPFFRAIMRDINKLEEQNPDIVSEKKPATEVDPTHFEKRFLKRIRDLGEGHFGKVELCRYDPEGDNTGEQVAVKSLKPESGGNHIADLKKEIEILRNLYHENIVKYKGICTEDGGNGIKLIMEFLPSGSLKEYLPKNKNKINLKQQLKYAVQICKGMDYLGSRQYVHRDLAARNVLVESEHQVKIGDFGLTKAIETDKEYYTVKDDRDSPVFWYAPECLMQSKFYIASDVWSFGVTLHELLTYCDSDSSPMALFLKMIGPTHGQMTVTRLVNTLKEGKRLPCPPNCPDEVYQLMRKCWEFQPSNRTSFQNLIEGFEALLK
UniProt P20807: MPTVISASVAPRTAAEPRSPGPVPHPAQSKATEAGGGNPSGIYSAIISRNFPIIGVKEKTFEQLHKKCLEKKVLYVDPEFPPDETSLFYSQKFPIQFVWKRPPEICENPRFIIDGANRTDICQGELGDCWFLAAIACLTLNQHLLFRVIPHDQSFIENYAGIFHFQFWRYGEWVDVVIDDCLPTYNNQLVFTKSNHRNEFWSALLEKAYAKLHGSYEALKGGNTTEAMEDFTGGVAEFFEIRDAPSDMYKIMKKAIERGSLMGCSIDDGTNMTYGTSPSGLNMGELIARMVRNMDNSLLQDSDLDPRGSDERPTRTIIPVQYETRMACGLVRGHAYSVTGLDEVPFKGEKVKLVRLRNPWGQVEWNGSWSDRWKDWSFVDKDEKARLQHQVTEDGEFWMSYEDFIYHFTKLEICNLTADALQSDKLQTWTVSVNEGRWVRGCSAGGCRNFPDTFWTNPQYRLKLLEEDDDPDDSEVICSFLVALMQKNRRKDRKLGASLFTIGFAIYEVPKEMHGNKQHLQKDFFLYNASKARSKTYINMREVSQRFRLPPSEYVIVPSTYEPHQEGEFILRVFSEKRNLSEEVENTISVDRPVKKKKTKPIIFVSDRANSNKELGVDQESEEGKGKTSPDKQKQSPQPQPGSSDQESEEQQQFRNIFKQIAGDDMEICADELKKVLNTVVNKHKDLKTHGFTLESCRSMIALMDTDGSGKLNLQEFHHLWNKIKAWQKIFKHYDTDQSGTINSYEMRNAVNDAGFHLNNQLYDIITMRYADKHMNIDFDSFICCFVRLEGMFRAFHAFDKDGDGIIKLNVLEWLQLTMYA
UniProt P20340: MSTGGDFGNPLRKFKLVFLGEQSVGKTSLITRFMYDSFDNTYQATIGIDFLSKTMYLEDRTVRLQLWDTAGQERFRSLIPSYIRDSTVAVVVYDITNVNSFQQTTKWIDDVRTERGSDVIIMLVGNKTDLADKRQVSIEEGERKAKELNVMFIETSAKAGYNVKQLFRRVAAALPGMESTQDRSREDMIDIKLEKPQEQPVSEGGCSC
UniProt P22670: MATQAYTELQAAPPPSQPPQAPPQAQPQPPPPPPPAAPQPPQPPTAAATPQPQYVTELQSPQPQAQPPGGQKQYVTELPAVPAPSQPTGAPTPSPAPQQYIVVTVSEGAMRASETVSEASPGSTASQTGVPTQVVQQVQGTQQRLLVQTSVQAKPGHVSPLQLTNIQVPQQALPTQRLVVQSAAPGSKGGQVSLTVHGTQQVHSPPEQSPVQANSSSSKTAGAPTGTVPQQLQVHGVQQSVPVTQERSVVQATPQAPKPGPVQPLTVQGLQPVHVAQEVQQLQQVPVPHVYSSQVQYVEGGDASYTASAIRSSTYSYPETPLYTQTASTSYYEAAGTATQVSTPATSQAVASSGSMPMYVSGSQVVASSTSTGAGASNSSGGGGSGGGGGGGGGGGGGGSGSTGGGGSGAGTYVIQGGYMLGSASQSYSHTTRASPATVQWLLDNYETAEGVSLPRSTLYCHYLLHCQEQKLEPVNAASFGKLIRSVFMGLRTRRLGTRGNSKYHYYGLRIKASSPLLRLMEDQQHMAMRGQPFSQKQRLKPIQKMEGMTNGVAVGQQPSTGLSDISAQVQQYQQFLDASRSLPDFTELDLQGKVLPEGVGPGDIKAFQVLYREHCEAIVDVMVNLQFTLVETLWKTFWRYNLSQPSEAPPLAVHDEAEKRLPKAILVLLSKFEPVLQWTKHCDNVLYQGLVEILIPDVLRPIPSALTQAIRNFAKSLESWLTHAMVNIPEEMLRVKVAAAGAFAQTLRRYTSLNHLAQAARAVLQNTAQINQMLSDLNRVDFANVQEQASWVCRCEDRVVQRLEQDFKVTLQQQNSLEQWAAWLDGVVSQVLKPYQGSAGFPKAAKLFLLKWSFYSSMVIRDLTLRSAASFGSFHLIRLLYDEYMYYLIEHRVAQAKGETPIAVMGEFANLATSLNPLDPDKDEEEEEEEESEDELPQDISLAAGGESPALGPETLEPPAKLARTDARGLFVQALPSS
UniProt P22532: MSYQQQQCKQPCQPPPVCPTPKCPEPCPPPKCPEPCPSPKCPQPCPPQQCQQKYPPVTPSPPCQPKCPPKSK
UniProt P15907: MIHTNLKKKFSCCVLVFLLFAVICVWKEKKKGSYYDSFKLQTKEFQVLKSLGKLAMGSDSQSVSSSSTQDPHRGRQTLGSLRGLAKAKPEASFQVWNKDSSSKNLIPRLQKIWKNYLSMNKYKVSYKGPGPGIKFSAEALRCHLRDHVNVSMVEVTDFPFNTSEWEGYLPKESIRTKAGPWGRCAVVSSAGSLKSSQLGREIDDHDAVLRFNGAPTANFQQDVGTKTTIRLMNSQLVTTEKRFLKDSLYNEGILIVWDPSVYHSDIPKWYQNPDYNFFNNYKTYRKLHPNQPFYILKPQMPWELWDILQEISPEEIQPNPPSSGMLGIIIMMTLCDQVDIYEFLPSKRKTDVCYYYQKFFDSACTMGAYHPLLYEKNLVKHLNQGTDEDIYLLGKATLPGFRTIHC
UniProt P24534: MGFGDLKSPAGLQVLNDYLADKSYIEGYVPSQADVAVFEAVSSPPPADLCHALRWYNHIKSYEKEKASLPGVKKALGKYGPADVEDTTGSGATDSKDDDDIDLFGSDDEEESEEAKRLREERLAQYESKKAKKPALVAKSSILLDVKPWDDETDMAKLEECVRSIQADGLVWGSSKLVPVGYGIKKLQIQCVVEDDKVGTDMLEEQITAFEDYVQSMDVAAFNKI
UniProt P15927: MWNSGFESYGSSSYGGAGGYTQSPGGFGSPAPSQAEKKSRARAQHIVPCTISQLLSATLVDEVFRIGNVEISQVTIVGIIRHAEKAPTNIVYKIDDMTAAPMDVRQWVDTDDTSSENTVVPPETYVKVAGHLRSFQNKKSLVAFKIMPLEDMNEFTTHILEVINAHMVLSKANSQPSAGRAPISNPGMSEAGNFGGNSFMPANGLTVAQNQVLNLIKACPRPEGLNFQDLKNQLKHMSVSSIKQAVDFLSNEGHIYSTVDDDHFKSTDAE
UniProt P18859: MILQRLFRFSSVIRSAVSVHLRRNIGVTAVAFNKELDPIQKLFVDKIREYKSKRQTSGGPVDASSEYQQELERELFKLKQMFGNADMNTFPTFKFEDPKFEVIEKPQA
UniProt P18146, whole entry, looked up: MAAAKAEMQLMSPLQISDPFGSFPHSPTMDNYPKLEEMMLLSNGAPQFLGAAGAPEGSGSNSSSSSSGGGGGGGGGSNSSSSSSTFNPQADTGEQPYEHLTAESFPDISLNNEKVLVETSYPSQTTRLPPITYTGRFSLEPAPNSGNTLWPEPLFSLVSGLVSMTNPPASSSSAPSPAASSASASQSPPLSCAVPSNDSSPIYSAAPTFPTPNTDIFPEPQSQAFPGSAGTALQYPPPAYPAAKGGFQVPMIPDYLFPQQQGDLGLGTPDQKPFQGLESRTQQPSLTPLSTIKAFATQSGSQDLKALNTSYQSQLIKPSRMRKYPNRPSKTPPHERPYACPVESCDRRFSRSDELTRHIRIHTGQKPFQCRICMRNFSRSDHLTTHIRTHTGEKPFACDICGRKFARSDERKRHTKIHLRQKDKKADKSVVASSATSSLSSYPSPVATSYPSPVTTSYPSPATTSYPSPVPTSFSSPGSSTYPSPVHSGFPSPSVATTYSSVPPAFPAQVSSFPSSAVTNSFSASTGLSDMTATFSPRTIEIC
UniProt P16435: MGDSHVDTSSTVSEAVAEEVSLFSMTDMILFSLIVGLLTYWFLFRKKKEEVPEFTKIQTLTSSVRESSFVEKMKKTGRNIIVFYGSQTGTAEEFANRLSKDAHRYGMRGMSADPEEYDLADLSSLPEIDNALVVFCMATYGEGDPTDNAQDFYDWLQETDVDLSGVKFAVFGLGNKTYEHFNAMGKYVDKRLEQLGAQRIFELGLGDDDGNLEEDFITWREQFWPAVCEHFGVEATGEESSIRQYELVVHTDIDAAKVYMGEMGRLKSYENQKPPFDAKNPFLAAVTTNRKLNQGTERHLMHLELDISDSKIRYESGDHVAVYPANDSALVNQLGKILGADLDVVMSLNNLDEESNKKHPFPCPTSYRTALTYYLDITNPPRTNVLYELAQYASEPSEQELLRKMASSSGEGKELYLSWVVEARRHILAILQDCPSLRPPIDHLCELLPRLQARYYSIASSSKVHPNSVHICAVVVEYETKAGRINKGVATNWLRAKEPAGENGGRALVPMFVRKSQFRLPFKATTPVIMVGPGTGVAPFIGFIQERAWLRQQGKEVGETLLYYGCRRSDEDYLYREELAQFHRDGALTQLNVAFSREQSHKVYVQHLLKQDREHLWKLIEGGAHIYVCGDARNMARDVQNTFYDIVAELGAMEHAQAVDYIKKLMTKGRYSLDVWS
UniProt P14209: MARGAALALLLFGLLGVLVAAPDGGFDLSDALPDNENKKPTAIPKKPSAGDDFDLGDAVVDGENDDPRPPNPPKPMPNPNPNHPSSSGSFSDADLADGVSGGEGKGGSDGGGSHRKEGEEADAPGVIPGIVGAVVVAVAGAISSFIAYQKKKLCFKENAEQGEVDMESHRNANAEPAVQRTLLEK
UniProt P28289: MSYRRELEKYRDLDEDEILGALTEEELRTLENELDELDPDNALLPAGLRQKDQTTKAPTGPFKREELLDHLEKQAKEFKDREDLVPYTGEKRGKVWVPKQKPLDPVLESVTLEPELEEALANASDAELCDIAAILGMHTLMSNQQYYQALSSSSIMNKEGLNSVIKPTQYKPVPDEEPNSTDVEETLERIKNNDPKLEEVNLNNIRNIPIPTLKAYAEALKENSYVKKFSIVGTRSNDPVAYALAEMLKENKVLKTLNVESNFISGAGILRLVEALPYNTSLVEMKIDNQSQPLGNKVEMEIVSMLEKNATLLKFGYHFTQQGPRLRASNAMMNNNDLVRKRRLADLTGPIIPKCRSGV
UniProt P17036: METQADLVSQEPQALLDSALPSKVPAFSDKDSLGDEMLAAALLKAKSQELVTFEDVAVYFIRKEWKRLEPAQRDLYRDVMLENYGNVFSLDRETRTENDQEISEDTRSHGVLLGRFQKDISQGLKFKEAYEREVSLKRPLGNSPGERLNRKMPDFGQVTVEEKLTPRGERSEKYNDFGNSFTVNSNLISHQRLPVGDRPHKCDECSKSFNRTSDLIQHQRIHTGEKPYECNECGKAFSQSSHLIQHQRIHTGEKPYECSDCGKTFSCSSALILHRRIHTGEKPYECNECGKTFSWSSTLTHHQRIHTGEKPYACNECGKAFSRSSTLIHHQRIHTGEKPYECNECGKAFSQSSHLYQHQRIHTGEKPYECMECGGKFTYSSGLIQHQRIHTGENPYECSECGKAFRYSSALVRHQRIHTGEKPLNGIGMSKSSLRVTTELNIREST

The other results are listed elsewhere or left out. Small differences around the control level are noise.

Compound in the experiment: CN[C@@H]1C[C@H]2O[C@@](C)([C@@H]1OC)n1c3ccccc3c3c4c(c5c6ccccc6n2c5c31)C(=O)NC4 [staurosporine]
As to the kind of experiment: log2 fold change of tryptic peptide abundance, ligand vs vehicle (limited proteolysis) (log2 ratio); higher = more trypsin-susceptible (destabilized). The settings on record: ligand concentration: 20 uM; sample: K562 cleared lysate; digestion: 4 min, 22 C (HT-PELSA RT4min, Orbitrap Astral).
As to “JAK1 (peptide sequence: MQLPELPK, peptide start residue: 206) (UniProt P23458)”, the log2 fold change worked out at 0.422.
The value for “UniProt P20807 (peptide sequence: GKTSPDKQK, peptide start residue: 626)” was -0.0723.
Consider “RPL35A (peptide sequence: VMLYPSRI, peptide start residue: 103) (UniProt P18077)”, for which the log2 fold change came to 0.469.
The same measure for “HPGD (peptide sequence: VALVTGAAQGIGR, peptide start residue: 7) (UniProt P15428)”: 0.124.
The same measure for “TFEB (peptide sequence: FAAHISPAQGSPKPPPAASPGVR, peptide start residue: 104) (UniProt P19484)”: -0.187; for “NEB (peptide sequence: YHEDFEK, peptide start residue: 785) (UniProt P20929)”: 0.0685; for “ITPKB (peptide sequence: VWMIDFGK, peptide start residue: 634) (UniProt P27987)”: -0.126.
The value for “RAB6A (peptide sequence: SREDMIDIK, peptide start residue: 184) (UniProt P20340)” was -0.0578; that for “RFX1 (peptide sequence: LLVQTSVQAK, peptide start residue: 145) (UniProt P22670)” was -0.182; that for “UniProt P22532 (peptide sequence: YPPVTPSPPCQPKCPPKSK, peptide start residue: 54)” was -0.685.
As for “AK4 (peptide sequence: QYKDVAKPVIELYK, peptide start residue: 173) (UniProt P27144)”, the log2 fold change was 0.717.
The value for “UniProt P15036 (peptide sequence: LADPDEVAR, peptide start residue: 393)” was 0.252.
On to “UniProt P21127 (peptide sequence: SEIDQINK, peptide start residue: 642)”, for which the log2 fold change was -0.492.
The value for “ST6GAL1 (peptide sequence: CAVVSSAGSLK, peptide start residue: 184) (UniProt P15907)” was -0.217.
The same measure for “EEF1B2 (peptide sequence: WYNHIKSYEKEK, peptide start residue: 55) (UniProt P24534)”: 0.811; for “PGAM1 (peptide sequence: HYGGLTGLNK, peptide start residue: 91) (UniProt P18669)”: -0.609.
For “RPA2 (peptide sequence: ACPRPEGLNFQDLK, peptide start residue: 218) (UniProt P15927)”, the log2 fold change was found to be 0.07.
As to “UniProt P18859 (peptide sequence: FEDPKFEVIEKPQA, peptide start residue: 95)”, the log2 fold change is -0.059.
The value for “EGR1 (peptide sequence: AFATQSGSQDLK, peptide start residue: 294) (UniProt P18146)” was -0.753; that for “POR (peptide sequence: IQTLTSSVR, peptide start residue: 57) (UniProt P16435)” was 0.157; that for “PRG2 (peptide sequence: GNLVSIHNFNINYR, peptide start residue: 131) (UniProt P13727)” was 0.699.
As for “RAB5A (peptide sequence: LVLLGESAVGK, peptide start residue: 24) (UniProt P20339)”, the log2 fold change worked out at 0.151.
The value for “UniProt P25398 (peptide sequence: DVIEEYFKCKK, peptide start residue: 122)” was -0.173.
The same measure for “UniProt P20823 (peptide sequence: VYNWFANR, peptide start residue: 326)”: -0.16; for “CAST (peptide sequence: DKLGERDDTIPPEYR, peptide start residue: 605) (UniProt P20810)”: -0.289.
Consider “RXRA (peptide sequence: IPHFSELPLDDQVILLR, peptide start residue: 286) (UniProt P19793)”, for which the log2 fold change turned out to be 0.271.
The value for “CD99 (peptide sequence: LCFKENAEQGEVDMESHR, peptide start residue: 153) (UniProt P14209)” was -1.12; that for “TMOD1 (peptide sequence: EFKDREDLVPYTGEK, peptide start residue: 77) (UniProt P28289)” was 0.322; that for “UniProt P17036 (peptide sequence: TSDLIQHQR, peptide start residue: 212)” was 0.628.
